Results from one PubChem assay

Source: PubChem BioAssay AID1224904 (Broad Institute, 2016).

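Selective DUX4 reporter inhibition in doxycycline-induced 293T-iDUX4 cells, scored as Gaussia percent activity minus Italica percent activity, after a 24-hour treatment.
The test concentration is not given here.
Percent difference between the Gaussia and Italica channels; more negative values mean more selective suppression of the DUX4 reporter, and higher values mean less activity.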

Values are in %.
The controls that fix the scale are not given here.
Common to all entries: measured here: selective DUX4 reporter inhibition.
This is a side read-out of the assay, for part of the compounds, not drawn at random.

| Compound | Gaussia minus Italica difference (%) |
|---|---|
| `C[C@H](CO)N1C[C@H](C)[C@H](CN(C)S(=O)(=O)Cc2ccccc2)OCc2ccccc2-c2c(n(C)c3ccccc23)C1=O` | -6.724 |
| `Cc1ccc(-c2ccc([C@@H]3[C@@H](CO)N4C(=O)CN(C(=O)Nc5ccc(F)cc5)C[C@H]34)cc2)cc1` | -6.643 |
| `COc1cccc(CN2CC3(CN(Cc4ccccn4)C3)c3c([nH]c4cc(OC)ccc34)[C@H]2CO)c1` | -0.3175 |
| `O=C(Cc1ccccn1)N1CCCCN2[C@@H](CO)[C@H](c3ccc(C#Cc4ccccc4)cc3)[C@@H]2C1` | -8.837 |
| `O=S(=O)(c1cccc(F)c1)N1CC[C@@H]2[C@H]1c1cc(C#Cc3cccc(F)c3)ccc1N[C@@H]2CO` | -4.9 |
| `COc1cccc(C#Cc2ccc([C@@H]3[C@H](CO)N4C(=O)CN(C(=O)C5CC5)C[C@@H]34)cc2)c1` | -4.924 |
| `O=C(C[C@H]1CC[C@H]2[C@@H](COC[C@H](O)CN2Cc2cc(F)cc(F)c2)O1)NC1CCCC1` | -7.627 |
| `N#C[C@@H]1[C@@H](c2ccc(-c3ccccc3F)cc2)[C@@H](CO)N1C(=O)Cc1ccccc1` | 10.95 |
| `C[C@@H]1CN([C@H](C)CO)C(=O)c2c(c3ccccc3n2C)-c2ccccc2CO[C@H]1CN(C)Cc1ccc(-c2ccccc2)cc1` | -18.2 |
| `COc1ccccc1CN(C)C[C@@H]1OCc2ccccc2-c2c(n(C)c3ccccc23)C(=O)N([C@H](C)CO)C[C@@H]1C` | -13.45 |
| `C[C@@H]1CN([C@H](C)CO)C(=O)c2c(c3ccccc3n2C)-c2ccccc2CO[C@@H]1CN(C)Cc1ccc(-c2ccccc2)cc1` | -9.731 |
| `CCOC(=O)N(C)C[C@@H]1OCc2ccccc2-c2c(n(C)c3ccccc23)C(=O)N([C@@H](C)CO)C[C@@H]1C` | -13.18 |
| `COc1cccc(C#Cc2ccc([C@H]3[C@H](CO)N4C(=O)CN(C(=O)Cc5ccccc5)C[C@@H]34)cc2)c1` | 3.292 |
| `CO[C@H]1CN(C)C(=O)c2ccc(NC(=O)c3nc4ccccc4s3)cc2OC[C@H](C)N(Cc2cccnc2)C[C@H]1C` | -1.281 |
| `O=C(C[C@H]1CC[C@@H]2[C@H](COC[C@@H](O)CN2Cc2cc(F)cc(F)c2)O1)Nc1nccs1` | 0.2189 |
| `CN1c2ccc(C#Cc3cccnc3)cc2[C@H]2[C@H](CCN2S(=O)(=O)c2ccc(F)cc2)[C@H]1CO` | -5.253 |
| `C[C@@H]1CN([C@@H](C)CO)C(=O)c2c(c3ccccc3n2C)-c2ccccc2CO[C@@H]1CN(C)S(=O)(=O)c1ccc([N+](=O)[O-])cc1` | 6.229 |
| `Cc1noc(C)c1S(=O)(=O)N(C)C[C@@H]1OCCCC[C@@H](C)Oc2ccc(NC(=O)c3ccccc3)cc2C(=O)N([C@@H](C)CO)C[C@H]1C` | 5.16 |
| `COc1cccc(-c2ccc3c(c2)[C@@H]2[C@@H](CCN2C(=O)c2ccc4c(c2)OCO4)[C@H](CO)N3C)c1` | 20.43 |
| `O=C(C1CC1)N1CC[C@@H]2[C@H](CO)Nc3ccc(-c4ccc(F)cc4)cc3[C@@H]21` | 0.09904 |
| `COc1ccc2c3c([nH]c2c1)[C@H](CO)N(C(=O)Nc1ccc(F)cc1)CC31CCN(C(=O)Nc2ccc3c(c2)OCO3)CC1` | -16.4 |
| `Cc1ccccc1S(=O)(=O)N1CC[C@@H]2[C@H](CO)Nc3ccc(-c4ccccc4F)cc3[C@@H]21` | -4.015 |
| `COc1ccccc1CN(C)C[C@H]1OCc2ccccc2-c2c(n(C)c3ccccc23)C(=O)N([C@@H](C)CO)C[C@@H]1C` | -18.34 |
| `COc1cccc(S(=O)(=O)N2C[C@@H]3N[C@H](C2)C3c2ccc(-c3ccccc3OC)cc2)c1` (stereo partly drawn) | -9.92 |
| `C[C@H]1CN([C@@H](C)CO)C(=O)c2c(c3ccccc3n2C)-c2ccccc2CO[C@H]1CN(C)C(=O)CCC(F)(F)F` | -0.4064 |
| `COc1ccc2c3c(n(C)c2c1)[C@@H](CO)NCC31CCN(S(=O)(=O)c2cccc(F)c2)CC1` | -0.9663 |
| `COc1cccc(C(=O)Nc2ccc3c(c2)OC[C@H](C)N(CCc2ccccc2)C[C@@H](C)[C@H](OC)CN(C)C3=O)c1` | -8.338 |
| `O=C(c1ccc2c(c1)OCO2)N1CCCCN2[C@@H](CO)[C@@H](c3ccc(-c4ccccc4)cc3)[C@@H]2C1` | -5.633 |
| `CCC(=O)N1CC(=O)N2[C@H](C1)[C@@H](c1ccc(C#CC3CCCCC3)cc1)[C@@H]2CO` | -9.76 |
| `O=C(Cc1ccccn1)N1CC2(C1)[C@@H](c1ccccc1)[C@@H](CO)N2C(=O)c1ccncc1` | -11 |
| `O=C(C[C@@H]1CC[C@@H]2[C@H](COC[C@H](O)CN2S(=O)(=O)c2ccccc2F)O1)N1CCC(Cc2ccccc2)CC1` | -15.09 |
| `O=C(C1CC1)N1[C@@H](CO)[C@@H](c2ccccc2)C12CN(Cc1cccc(Cl)c1)C2` | -2.303 |
| `COc1ccccc1CN(C)C[C@H]1OCc2ccccc2-c2c(n(C)c3ccccc23)C(=O)N([C@H](C)CO)C[C@@H]1C` | -15.87 |
| `CN1c2ccc(-c3ccccc3)cc2[C@H]2[C@H](CCN2C(=O)c2ccc3c(c2)OCO3)[C@H]1CO` | -10.6 |
| `COc1cccc(S(=O)(=O)N(C)C[C@H]2OCc3ccccc3-c3c(n(C)c4ccccc34)C(=O)N([C@@H](C)CO)C[C@H]2C)c1` | 10.01 |
| `COc1ccc2c3c(n(C)c2c1)[C@@H](CO)N(CC1CC1)CC31CCN(C(=O)c2ccc(F)cc2)CC1` | -14.26 |
| `COc1ccccc1-c1ccc2c(c1)[C@@H]1[C@@H](CCN1S(=O)(=O)c1ccccc1)[C@H](CO)N2` | 26.72 |
| `COc1cccc(S(=O)(=O)N2CCCCN3[C@H](CO)[C@@H](c4ccc(-c5cccnc5)cc4)[C@@H]3C2)c1` | -18.32 |
| `CC(C)[C@@H](C)NC(=O)N(C)C[C@H]1OCc2ccccc2-c2c(n(C)c3ccccc23)C(=O)N([C@H](C)CO)C[C@@H]1C` | -13.17 |
| `COc1ccc2c3c(n(C)c2c1)[C@@H](CO)N(Cc1ccccc1F)CC31CCN(CC2CC2)CC1` | -13.35 |
| `N#Cc1cccc(-c2ccc3c(c2)[C@H]2[C@H](CCN2C(=O)c2ccc4c(c2)OCO4)[C@H](CO)N3)c1` | -5.127 |
| `O=S(=O)(c1cccs1)N1CCCCN2[C@H](C1)[C@@H](c1ccc(Br)cc1)[C@@H]2CO` | -11.49 |
| `C[C@H](CO)N1C[C@H](C)[C@H](CN(C)C(=O)[C@H](Cc2ccccc2)N(C)C)OCc2ccccc2-c2c(n(C)c3ccccc23)C1=O` | -1.287 |
| `O=C(c1ccccn1)N1CC(=O)N2[C@H](CO)[C@@H](c3ccc(C#Cc4ccccc4)cc3)[C@@H]2C1` | -4.091 |
| `CO[C@H](CN(C)S(=O)(=O)c1cccc(Cl)c1)[C@H](C)CN([C@@H](C)CO)S(=O)(=O)c1cccc(Cl)c1` | -1.198 |
| `CCc1cnc(N2[C@H](C#N)[C@H](c3ccc(C4=CCCCC4)cc3)[C@H]2CO)s1` | 0.8605 |
| `C[C@@H]1CN([C@H](C)CO)C(=O)c2c(c3ccccc3n2C)-c2ccccc2CO[C@H]1CN(C)C(=O)N[C@H](C)c1ccccc1` | -9.408 |
| `Cc1ccccc1S(=O)(=O)N1CC[C@@H]2[C@@H](CO)Nc3ccc(-c4ccccc4F)cc3[C@@H]21` | -11.8 |
| `CCCC#Cc1ccc([C@H]2[C@H](CO)N3C(=O)CN(C(=O)c4cccc(F)c4)C[C@@H]23)cc1` | -15.9 |
| `O=C(Cc1cccnc1)N1CCCCN2[C@H](C1)[C@H](c1ccc(C#CC3CCCC3)cc1)[C@@H]2CO` | 6.601 |

Repeated from the top, 5 entries:

Compound	Gaussia minus Italica difference (%)
C[C@H](CO)N1C[C@H](C)[C@H](CN(C)S(=O)(=O)Cc2ccccc2)OCc2ccccc2-c2c(n(C)c3ccccc23)C1=O	-6.724
Cc1ccc(-c2ccc([C@@H]3[C@@H](CO)N4C(=O)CN(C(=O)Nc5ccc(F)cc5)C[C@H]34)cc2)cc1	-6.643
COc1cccc(CN2CC3(CN(Cc4ccccn4)C3)c3c([nH]c4cc(OC)ccc34)[C@H]2CO)c1	-0.3175
O=C(Cc1ccccn1)N1CCCCN2[C@@H](CO)[C@H](c3ccc(C#Cc4ccccc4)cc3)[C@@H]2C1	-8.837
O=S(=O)(c1cccc(F)c1)N1CC[C@@H]2[C@H]1c1cc(C#Cc3cccc(F)c3)ccc1N[C@@H]2CO	-4.9